According to patent publication US4874856A, “3-(substituted)propenyl-7-(aminothiazolylacetamido) ceph-3-em-4-carboxylic acids and esters thereof” (Bristol-Myers Company, priority 1987, dated 1989):

Test: Mouse blood levels after oral administration (Table 2)
Details: in vivo

Work on `N[C@@H](C(=O)N[C@@H]1C(=O)N2C(C(=O)O)=C(Cl)CS[C@H]12)c1ccccc1` [Cefaclor] yielded a Cmax (20 mg/kg) of 8500 ng/mL and a Cmax (100 mg/kg) of 26000 ng/mL.
